US9309240B2, “Pyrazolopyridine compounds, compositions and methods of use” (F. HOFFMANN-LA ROCHE AG, priority 2010, dated 2016)
pKi: −log10 of the molar value. Counter-ions that a name gives are not always drawn. Some results were stated once for a whole list of compounds, not compound by compound.

target: T1, TYK2 kinase domain (Homo sapiens, UniProt P29597); test: JAK1, JAK2 and TYK2 Inhibition Assay Protocol (Example A): TYK2 kinase domain, Caliper LabChip peptide phosphorylation; type: biochemical
T1 construct: The activity of the isolated JAK1, JAK2 or TYK2 kinase domain was measured
T1 sequence (P29597 897-1176 limits assumed): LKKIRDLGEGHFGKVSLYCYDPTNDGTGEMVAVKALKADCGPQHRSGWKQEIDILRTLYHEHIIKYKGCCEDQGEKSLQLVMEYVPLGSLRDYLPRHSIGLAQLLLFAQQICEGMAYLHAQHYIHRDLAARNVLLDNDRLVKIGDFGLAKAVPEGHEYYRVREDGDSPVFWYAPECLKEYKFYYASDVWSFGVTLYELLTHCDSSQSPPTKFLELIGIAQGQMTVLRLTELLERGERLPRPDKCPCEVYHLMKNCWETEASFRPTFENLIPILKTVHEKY

pKi, > 6.30:
Cc1cc(Nc2ncc(F)c3nn(-c4c(Cl)cccc4C#N)cc23)ncn1 [Example 95, 3-Chloro-2-[7-fluoro-4-(6-methylpyrimidin-4-ylamino)-pyrazolo[4,3-c]pyridin-2-yl]-benzonitrile]
Nc1cc(Nc2nccc3nn(-c4c(Cl)cccc4Cl)cc23)nc(N)n1 [Example 11, N-[2-(2,6-Dichlorophenyl)-2H-pyrazolo[4,3-c]pyridin-4-yl]-pyrimidine-2,4,6-triamine]
N#Cc1cc(Cl)c(-n2cc3c(Nc4cc(CF)ncn4)nccc3n2)c(Cl)c1 [Example 21, 3,5-Dichloro-4-[4-(6-fluoromethyl-pyrimidin-4-ylamino)-pyrazolo[4,3-c]pyridin-2-yl]-benzonitrile]
CS(=O)(=O)c1cc(Cl)c(-n2cc3c(NC(=O)C4CC4)nccc3n2)c(Cl)c1 [Example 67, N-(2-(2,6-dichloro-4-methane-sulphonyl-phenyl)-2H-pyrazolo[4,3-c]pyridine-4-yl)cyclopropane-carboxamide]
Cc1cc(Nc2nccc3nn(-c4c(Cl)cc(C#N)cc4Cl)cc23)nc(C)n1 [Example 19, 3,5-Dichloro-4-[4-(2,6-dimethylpyrimidin-4-ylamino)pyrazolo[4,3-c]pyridin-2-yl]benzonitrile]
OCc1cc(Nc2ncc(Br)c3nn(-c4c(Cl)cccc4Cl)cc23)ncn1 [Example 37, {6-[7-Bromo-2-(2,6-dichloro-phenyl)-2H-pyrazolo[4,3-c]pyridin-4-ylamino]-pyrimidin-4-yl}-methanol]
Cc1cc(Nc2ncc(F)c3nn(-c4c(Cl)cc(F)cc4C#N)cc23)nc(CO)n1 [Example 139, 3-Chloro-5-fluoro-2-[7-fluoro-4-(2-hydroxymethyl-6-methylpyrimidin-4-ylamino)-pyrazolo[4,3-c]pyridin-2-yl]-benzonitrile•HCl]
Nc1ccc(Nc2nccc3nn(-c4c(Cl)cccc4Cl)cc23)nn1 [Example 8, N-[2-(2,6-Dichlorophenyl)-2H-pyrazolo[4,3-c]pyridin-4-yl]-pyridazine-3,6-diamine]
N#Cc1ccc(Nc2nccc3nn(-c4c(Cl)cccc4Cl)cc23)nc1 [Example 3, 6-[2-(2,6-Dichlorophenyl)-2H-pyrazolo[4,3-c]pyridin-4-ylamino]nicotinonitrile]
N#Cc1cc(Cl)c(-n2cc3c(Nc4cc(NC(=O)C5CC5)ncn4)nccc3n2)c(Cl)c1 [Example 26, N-(6-((2-(2,6-dichloro-4-cyanophenyl)-2H-pyrazolo[4,3-c]pyridin-4-yl)amino)pyrimidin-4-yl)cyclopropanecarboxamide]
N#Cc1cc(Cl)c(-n2cc3c(Nc4cc(CN5CCCCC5)ncn4)nccc3n2)c(Cl)c1 [Example 73, 3,5-Dichloro-4-[4-(6-piperidin-1-ylmethyl-pyrimidin-4-ylamino}pyrazolo[4,3-c]pyridine-2-yl)benzonitrile]
OCCN1CCN(c2cc(Nc3nccc4nn(-c5c(F)ccc(F)c5Cl)cc34)ncn2)CC1 [Example 83, 2-(4-(6-(2-(2-chloro-3,6-difluorophenyl)-2H-pyrazolo[4,3-c]pyridin-4-ylamino)pyrimidin-4-yl)piperazin-1-yl)ethanol]
Cc1nc(CO)cc(Nc2ncc(F)c3nn(-c4c(F)cccc4C#N)cc23)n1 [Example 144, 3-Fluoro-2-[7-fluoro-4-(6-hydroxymethyl-2-methylpyrimidin-4-ylamino)-pyrazolo[4,3-c]pyridin-2-yl]-benzonitrile•HCl]
Cc1cc(Nc2nccc3nn(-c4c(Cl)cc(N)cc4Cl)cc23)ncn1 [Example 86, 2-(4-amino-2,6-dichlorophenyl)-N-(6-methylpyrimidin-4-yl)-2H-pyrazolo[4,3-c]pyridin-4-amine]
CC(=O)Nc1cc(Nc2ncc(F)c3nn(-c4c(Cl)cccc4Cl)cc23)ncn1 [Example 92, N-{6-[2-(2,6-Dichlorophenyl)-7-fluoro-2H-pyrazolo[4,3-c]pyridin-4-ylamino]-pyrimidin-4-yl}-acetamide]
Cc1cc(Nc2ncc(F)c3nn(-c4c(F)cccc4C#N)cc23)nc(C)n1 [Example 108, 2-[4-(2,6-Dimethylpyrimidin-4-ylamino)-7-fluoropyrazolo[4,3-c]pyridin-2-yl]-3-fluorobenzonitrile hydrochloride salt]
NC(=O)c1cc(Nc2nccc3nn(-c4c(Cl)cccc4Cl)cc23)ncn1 [Example 59, 6-[2-(2,6-Dichloro-phenyl)-2H-pyrazolo[4,3-c]pyridin-4-ylamino]-pyrimidine-4-carboxylic acid amide]
N#Cc1cccc(Cl)c1-n1cc2c(Nc3cc(CO)ncn3)ncc(F)c2n1 [Example 119, 3-Chloro-2-[7-fluoro-4-(-6-hydroxymethyl-pyrimidin-4-ylamino)-pyrazolo[4,3-c]pyridin-2-yl]-benzonitrile]
CN(CCO)c1cc(Nc2nccc3nn(-c4c(F)ccc(F)c4Cl)cc23)ncn1 [Example 82, 2-((6-(2-(2-chloro-3,6-difluorophenyl)-2H-pyrazolo[4,3-c]pyridin-4-ylamino)pyrimidin-4-yl)(methyl)amino)ethanol]
Cc1cc(Nc2ncc(F)c3nn(-c4c(Cl)cc(CO)cc4C#N)cc23)ncn1 [Example 114, 3-Chloro-2-[7-fluoro-4-(6-methylpyrimidin-4-ylamino)pyrazolo[4,3-c]pyridin-2-yl]-5-hydroxymethyl benzonitrile]
N#Cc1cccc(Cl)c1-n1cc2c(NC(=O)C3CC3)ncc(Cl)c2n1 [Example 160, N-(7-chloro-2-(2-chloro-6-cyanophenyl)-2H-pyrazolo[4,3-c]pyridin-4-yl)cyclopropane-carboxamide]
Cc1cc(Nc2nccc3nn(-c4c(F)cccc4Cl)cc23)nc(C)n1 [Example 64, [2-(2-Chloro-6-fluorophenyl)-2H-pyrazolo[4,3-c]pyridine-4-yl]-(2,6-dimethyl-pyrimidin-4-yl)amine]
Cc1nc(N)cc(Nc2ncc(F)c3nn(-c4c(Cl)cc(F)cc4C#N)cc23)n1 [Example 104, 2-[4-(6-Amino-2-methylpyrimidin-4-ylamino)-7-fluoropyrazolo[4,3-c]pyridin-2-yl]-3-chloro-5-fluorobenzonitrile hydrochloride salt]
N#Cc1cccc(Cl)c1-n1cc2c(Nc3cc(N)ncn3)ncc(F)c2n1 [Example 121, 2-[4-(6-Aminopyrimidin-4-ylamino)-7-fluoropyrazolo[4,3-c]pyridin-2-yl]-3-chloro-benzonitrile•HCl]
OC1CN(c2cc(Nc3nccc4nn(-c5c(Cl)cccc5Cl)cc34)ncn2)C1 [Example 50, 1-{6-[2-(2,6-Dichlorophenyl)-2H-pyrazolo[4,3-c]pyridin-4-ylamino]pyrimidin-4-yl}azetidin-3-ol]
O=c1ccnc(Nc2nccc3nn(-c4c(F)ccc(F)c4Cl)cc23)[nH]1 [Example 85, 2-(2-(2-chloro-3,6-difluorophenyl)-2H-pyrazolo[4,3-c]pyridin-4-ylamino)pyrimidin-4(3H)-one]
COc1cnc(Nc2cc(CO)ncn2)c2cn(-c3c(Cl)cccc3Cl)nc12 [Example 42, {6-[2-(2,6-Dichlorophenyl)-7-methoxy-2H-pyrazolo[4,3-c]pyridin-4-ylamino]-pyrimidin-4-yl}-methanol]
Cc1ccc(Nc2nccc3nn(-c4c(Cl)cccc4Cl)cc23)nn1 [Example 57, [2-(2,6-Dichlorophenyl)-2H-pyrazolo[4,3-c]pyridin-4-yl](6-methylpyridazin-3-yl)amine]
N#Cc1cccc(Cl)c1-n1cc2c(Nc3cc(CO)ncn3)nccc2n1 [Example 152, 3-chloro-2-(4-(6-(hydroxymethyl)pyrimidin-4-ylamino)-2H-pyrazolo[4,3-c]pyridin-2-yl)benzonitrile]
N#Cc1cccc(Cl)c1-n1cc2c(Nc3cc(N)ncn3)nccc2n1 [Example 89, 2-(4-(6-aminopyrimidin-4-ylamino)-2H-pyrazolo[4,3-c]pyridin-2-yl)-3-chlorobenzonitrile]
Cc1cc(Nc2nccc3nn(-c4c(Cl)cccc4Cl)cc23)nc(N)n1 [Example 9, N^4-[2-(2,6-Dichlorophenyl)-2H-pyrazolo[4,3-c]pyridin-4-yl]-6-methyl-pyrimidine-2,4-diamine]
Cc1cc(Nc2ncc(F)c3nn(-c4c(Cl)cc(F)cc4Cl)cc23)ncn1 [Example 43, [2-(2,6-Dichloro-4-fluorophenyl)-7-fluoro-2H-pyrazolo[4,3-c]pyridin-4-yl]-(6-methylpyrimidin-4-yl)-amine]
COc1nc(N)cc(Nc2nccc3nn(-c4c(Cl)cccc4Cl)cc23)n1 [Example 10, N-[2-(2,6-Dichlorophenyl)-2H-pyrazolo[4,3-c]pyridin-4-yl]-2-methoxy-pyrimidine-4,6-diamine]
Cc1ccnc(Nc2nccc3nn(-c4c(Cl)cc(F)cc4Cl)cc23)c1 [Example 74, [2-(2,6-Dichloro-4-fluorophenyl)-2H-pyrazolo[4,3-c]pyridine-4-yl]-(4-methylpyridin-2-yl)amine]
N#Cc1cc(N)cc(Cl)c1-n1cc2c(Nc3cc(N)ncn3)nccc2n1 [Example 154, 5-amino-2-(4-(6-aminopyrimidin-4-ylamino)-2H-pyrazolo[4,3-c]pyridin-2-yl)-3-chlorobenzonitrile]
N#Cc1cc(Cl)c(-n2cc3c(Nc4cc(C5CC5)ncn4)nccc3n2)c(Cl)c1 [Example 71, 3,5-Dichloro-4-[4-(6-cyclopropyl-pyrimidin-4-ylamino)pyrazolo[4,3-c]pyridin-2-yl]benzonitrile]
O=C(Nc1nccc2nn(-c3c(Cl)cccc3Cl)cc12)C1CC1 [Example 1, N-(2-(2,6-Dichlorophenyl)-2H-pyrazolo[4,3-c]pyridin-4-yl)cyclopropanecarboxamide]
